The assay deals with T1, Act1-Flag (UniProt Q8N7N6).
T1 sequence: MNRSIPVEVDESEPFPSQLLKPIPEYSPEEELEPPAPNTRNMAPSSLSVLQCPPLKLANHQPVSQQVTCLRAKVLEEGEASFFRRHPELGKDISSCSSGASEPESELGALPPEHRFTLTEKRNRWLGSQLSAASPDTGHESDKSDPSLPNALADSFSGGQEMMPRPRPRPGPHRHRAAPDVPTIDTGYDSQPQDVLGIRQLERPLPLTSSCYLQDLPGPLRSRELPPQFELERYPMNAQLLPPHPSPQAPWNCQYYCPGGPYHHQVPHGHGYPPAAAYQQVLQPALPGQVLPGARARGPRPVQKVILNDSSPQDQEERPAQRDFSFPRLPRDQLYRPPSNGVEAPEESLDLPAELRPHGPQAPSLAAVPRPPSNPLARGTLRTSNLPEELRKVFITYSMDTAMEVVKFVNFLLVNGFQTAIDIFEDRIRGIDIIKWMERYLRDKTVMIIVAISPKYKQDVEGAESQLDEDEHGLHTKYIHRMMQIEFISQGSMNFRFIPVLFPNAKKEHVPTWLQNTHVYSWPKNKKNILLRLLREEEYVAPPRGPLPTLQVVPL
The assay is described as follows: affinity purification with mass spectrometry; immunoprecipitation via anti-Flag beads from lysates of HeLa cells transiently transfected to express Act1-Flag.

By UniProt entry, the sequences of proteins in these tests, tags left out.
UniProt P40763: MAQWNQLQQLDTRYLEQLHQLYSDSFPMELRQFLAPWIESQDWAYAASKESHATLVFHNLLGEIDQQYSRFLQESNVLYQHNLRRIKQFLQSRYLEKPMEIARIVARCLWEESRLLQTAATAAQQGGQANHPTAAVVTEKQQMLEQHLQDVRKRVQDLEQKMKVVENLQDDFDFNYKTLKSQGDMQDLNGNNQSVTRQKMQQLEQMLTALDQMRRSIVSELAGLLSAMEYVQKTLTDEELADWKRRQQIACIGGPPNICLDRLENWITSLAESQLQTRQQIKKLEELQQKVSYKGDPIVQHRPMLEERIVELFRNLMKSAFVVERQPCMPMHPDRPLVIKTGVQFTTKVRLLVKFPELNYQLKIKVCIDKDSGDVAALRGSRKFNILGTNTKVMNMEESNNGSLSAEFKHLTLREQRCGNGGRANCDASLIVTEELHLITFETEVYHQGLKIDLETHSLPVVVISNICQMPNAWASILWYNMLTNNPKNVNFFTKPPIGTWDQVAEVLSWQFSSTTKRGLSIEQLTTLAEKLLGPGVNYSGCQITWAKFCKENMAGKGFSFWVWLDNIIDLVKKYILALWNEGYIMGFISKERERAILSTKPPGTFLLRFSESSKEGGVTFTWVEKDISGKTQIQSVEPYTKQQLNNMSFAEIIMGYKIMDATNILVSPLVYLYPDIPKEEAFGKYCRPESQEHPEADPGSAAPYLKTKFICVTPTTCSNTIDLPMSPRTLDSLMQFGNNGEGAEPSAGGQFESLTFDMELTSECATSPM

These are yes or no findings as the source states them, for the method shown. In cells and extracts the contact can be indirect. A yes stands for co-enrichment or nearness to the bait. Other partners may have been found. Sequences can lack the tags named with a protein.

With STAT3 (from UniProt P40763 1-770), the binding result is listed as “binds”.
